From patent US5910482A (priority 1996, dated 1999) come the findings set out here.

The data set deals with pregnant rats. In words: Delivery day and pup survival after L-NAME infusion to pregnant rats; effect of CGRP on fetal survival. The class given is in vivo. Particulars: L-NAME 50/mg/day infusion to pregnant rats; 5 animals.

The structures appear in SMILES notation. Some results come without the dose or concentration used.

Consider `COC(=O)[C@@H](N)CCCNC(=N)N[N+](=O)[O-]` [L-NAME, N^G -nitro-L-arginine methyl ester], for which the “Day of Delivery” value is listed as 22 ± 0 and the “Total # of pups” value was found to be 55.
